“Also recorded” adds a separate entry of the source. At least one peptide structure holds a part that was inferred or is arguable (an end, a ring closure or a residue).
Tested on: IIIB strain of HIV-1
Test: Anti-HIV effect: protection of MT-4 T lymphocytes from HIV-caused cell death (XTT assay)
Assay type: cell-based
Conditions: for anti-HIV effect (in words): 100 mcg-1 ng per ml, 5-7 days
Method: Viability=100%×[(ODT)-(ODD)]/[(ODM)-(ODD)]
Where ODT is optical density values of culture wells treated with test peptides; ODM optical density of mock-infected cells; ODD light absorbance values of untreated cells dead from exposure to HIV.
The serial ten-fold dilutions (100 mcg-1 ng per ml) of 6 different synthetic peptides representing N-terminal and core region of hCG were tested for their effect on HIV replication (FIG. 1). […] In these experiments the viability of MT4 was determined after 5-7 days of continuous presence of the virus and hCG peptide fragment in the target cell culture.

Compound	anti-HIV effect (in words) (MT-4, HIV-1 IIIB, XTT)	doses of peak activity (MT-4, HIV-1 IIIB, XTT)	MT-4 cells able to survive (100 ng/ml, after 6 days of exposure to HIV)	most potent (most active) concentration (MT-4, HIV-1 IIIB, XTT, bell-shaped dose response)	relative impact on survival of MT-4 (FIG. 3) (average of all six dilutions (100 mcg-1 ng), relative to a total sum of 100%)
CC(C)C[C@H](NC(=O)[C@H](CO)NC(=O)[C@@H]1CCCN1C(=O)[C@@H]1CCCN1C(=O)[C@@H]1CCCN1C(=O)[C@H](C)NC(=O)[C@H](CCCCN)NC(=O)[C@H](CO)NC(=O)[C@@H](N)CO)C(=O)N1CCC[C@H]1C(=O)N[C@@H](CO)C(=O)N1CCC[C@H]1C(=O)N[C@@H](CO)C(=O)O [compound 8, S120 SKAPPPSLPS130 PS]	active; also recorded: restricted effect				
CC[C@H](C)[C@H](NC(=O)[C@@H]1CCCN1C(=O)[C@@H](NC(=O)[C@H](CC(=O)O)NC(=O)[C@H](CO)NC(=O)[C@@H]1CCCN1C(=O)CNC(=O)[C@@H]1CCCN1C(=O)[C@H](CC(C)C)NC(=O)[C@H](CCCNC(=N)N)NC(=O)[C@H](CO)NC(=O)[C@@H]1CCCN1C(=O)[C@H](CO)NC(=O)[C@@H]1CCCN1C(=O)[C@H](CC(C)C)NC(=O)[C@H](CO)NC(=O)[C@@H]1CCCN1C(=O)[C@@H]1CCCN1C(=O)[C@@H]1CCCN1C(=O)[C@H](C)NC(=O)[C@H](CCCCN)NC(=O)[C@H](CO)NC(=O)[C@H](CO)NC(=O)[C@H](CO)NC(=O)[C@H](CO)NC(=O)[C@H](CC(=O)O)NC(=O)[C@H](CCC(N)=O)NC(=O)[C@H](Cc1ccccc1)NC(=O)[C@H](CCCNC(=N)N)NC(=O)[C@@H]1CCCN1C(=O)[C@H](CC(=O)O)NC(=O)[C@@H](N)CC(=O)O)[C@@H](C)O)C(=O)N[C@@H](CC(C)C)C(=O)N1CCC[C@H]1C(=O)N[C@@H](CCC(N)=O)C(=O)N1CCC[C@H]1C(=O)N1CCC[C@H]1C(=O)N1CCC[C@H]1C(=O)N1CCC[C@H]1C(=O)N1CCC[C@H]1C(=O)N1CCC[C@H]1C(=O)N[C@@H](CS)C(=O)O [compound 11, DDPRFQDSSS120 SKAPPPSLPS130 PSRLPGPSDT140 PILPQ145 PPPPPPC]	diminished activity with the peak corresponding to the higher end of dose range; also recorded: modest activity	1 to 10 µg/mL			
CC[C@H](C)[C@H](NC(=O)[C@@H]1CCCN1C(=O)[C@@H](NC(=O)[C@H](CC(=O)O)NC(=O)[C@H](CO)NC(=O)[C@@H]1CCCN1C(=O)CNC(=O)[C@@H]1CCCN1C(=O)[C@H](CC(C)C)NC(=O)[C@H](CCCNC(=N)N)NC(=O)[C@H](CO)NC(=O)[C@@H]1CCCN1C(=O)[C@H](CO)NC(=O)[C@@H]1CCCN1C(=O)[C@H](CC(C)C)NC(=O)[C@H](CO)NC(=O)[C@@H]1CCCN1C(=O)[C@@H]1CCCN1C(=O)[C@@H]1CCCN1C(=O)[C@H](C)NC(=O)[C@H](CCCCN)NC(=O)[C@H](CO)NC(=O)[C@H](CO)NC(=O)[C@H](CO)NC(=O)[C@H](CO)NC(=O)[C@H](CC(=O)O)NC(=O)[C@H](CCC(N)=O)NC(=O)[C@H](Cc1ccccc1)NC(=O)[C@H](CCCNC(=N)N)NC(=O)[C@@H]1CCCN1C(=O)[C@H](CC(=O)O)NC(=O)[C@H](CC(=O)O)NC(=O)[C@H](CS)NC(=O)[C@@H](NC(=O)[C@H](CC(C)C)NC(=O)[C@@H]1CCCN1C(=O)[C@@H](N)Cc1c[nH]cn1)[C@@H](C)O)[C@@H](C)O)C(=O)N[C@@H](CC(C)C)C(=O)N1CCC[C@H]1C(=O)N[C@@H](CCC(N)=O)C(=O)O [peptide #9, HPLTC110 DDPRFQDSSS120 SKAPPPSLPS130 PSRLPGPSDT140 PILPQ145]			63%	100 ng/mL	tallest bar
